No constants are given. Whether binding was seen depends on the method and setting. Some binding calls cover weakened binding; strength is not graded here.
Target: SELOR domain of MLN51 (residues 137-283) (UniProt O15234)
Experiment: SPR; 5'-biotinylated 35-mer single-stranded RNA on a streptavidin chip; 160 nM protein samples injected without nucleotide; 40 mM Tris-HCl pH 7.8, 50 mM NaCl, 4 mM DTT, 5 mM MgCl2, 0.002% Tween 20, 30 µl/min; Biacore 2000; the protein-protein complex is read from the rise of protein bound to RNA; both purified

Chains of the proteins cited; added tags and fusions are not shown. Residues count along the entry.
UniProt O15234, residues 137-283: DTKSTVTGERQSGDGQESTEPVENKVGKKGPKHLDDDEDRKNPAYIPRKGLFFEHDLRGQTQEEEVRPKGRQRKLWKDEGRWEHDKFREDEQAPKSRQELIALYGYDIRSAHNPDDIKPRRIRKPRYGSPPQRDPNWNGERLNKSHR
UniProt P38919: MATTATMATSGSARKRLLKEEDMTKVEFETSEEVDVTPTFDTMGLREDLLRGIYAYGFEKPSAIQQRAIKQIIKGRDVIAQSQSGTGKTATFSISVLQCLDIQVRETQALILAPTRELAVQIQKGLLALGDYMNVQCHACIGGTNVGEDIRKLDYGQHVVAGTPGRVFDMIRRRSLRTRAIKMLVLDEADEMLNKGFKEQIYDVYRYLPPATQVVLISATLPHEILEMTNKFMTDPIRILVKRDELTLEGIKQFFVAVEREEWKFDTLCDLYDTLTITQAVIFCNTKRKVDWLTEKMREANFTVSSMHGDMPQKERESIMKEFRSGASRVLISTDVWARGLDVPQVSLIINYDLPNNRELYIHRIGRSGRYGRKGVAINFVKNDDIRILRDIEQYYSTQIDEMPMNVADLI

Substance: eIF4AIII (from UniProt P38919 1-411) (enzyme)
- binding: binds

Source: paper PMC1810427
